Assay results reported in PubChem BioAssay AID1347075 (National Center for Advancing Translational Sciences (NCATS), 2019).
The whole screen tested about 400,000 compounds, of which about 5,500 (1.4%) were called active. Inconclusive means that the source gave no clear call. Such entries were picked first, then a sample of the others. Calls come from the whole dose curve; as a rule, active = well fitted cell-killing curve with a large enough effect; inconclusive = small, poorly fitted or top-dose-only effect, or effect the other way; inactive = flat fitted curve, though single readings scatter. Potencies beside an inconclusive call are fits to weak or partial responses and may not hold up.

Assay: qHTS assay for MDR1-selective chemotherapeutics: Primary screen using the parental adenocarcinoma cell KB-3-1; note: nearly all actives have a fitted effect of over 60% in size
Conditions: KB-3-1 viability, CellTiter-Glo ATP luminescence, 72 h; activity change, negative = cytotoxic: at 46.1 µM (top of the series)
How it was run: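 Multi-concentration cytotoxicity screen in KB-3-1 cells grown in DMEM lacking phenol red with 10% FBS. After 72 h at 37 °C with compound, ATP-dependent luminescence was recorded.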
% is set by controls: 0 for no effect and ±100 for the full control effect; potency is the fitted concentration of half-maximal effect.

Row | SMILES | Potency | activity change, negative = cytotoxic
1 | CCOC(=O)c1c(-c2ccc(OC)cc2)csc1/N=C/N(C)C | inconclusive: 16.4 µM [cytotoxic, single point] | 
2 | CCc1ccc(C(=O)COC(=O)c2n[nH]c3ccccc23)cc1 | inconclusive: 3.66 µM [rising, partial curve, poor fit] | 
3 | COc1ccc(N2CC(C(=O)NCc3ccco3)CC2=O)cc1 (stereo not drawn) |  | inconclusive: -6.92%
4 | COc1ccc(Br)cc1/C=N/NS(=O)(=O)c1ccccc1 | inconclusive: 29.1 µM [cytotoxic, single point] | 
5 | CCCc1c(-c2ccc(Cl)cc2)ncn1Cc1cccc(-c2ccccc2)c1 | active: 16.4 µM | 
6 | CCn1cc(C(=O)N2CCN(c3cc(C)ccc3C)CC2)c(=O)c2cc(S(=O)(=O)N3CCCCC3)ccc21 | inactive | 
7 | CCCCCCCCN1C(=O)[C@H](CC(=O)NCC23CC4CC(CC(C4)C2)C3)C[C@@]2(C(=O)OC)CCCCC=C12 | inconclusive: 20.6 µM [cytotoxic, single point] | 
8 | FC(F)(F)c1nnc2ccc(N3CCCCCC3)nn12 | inconclusive: 13 µM [cytotoxic, partial curve, poor fit] | 
9 | COc1nccc(-c2ccc(F)cc2)c1C#N | inconclusive: 29.1 µM [cytotoxic, single point] | 
10 | CC1(C)C([N+](=O)[O-])C(c2ccc(F)cc2)NC(c2ccc(F)cc2)C1[N+](=O)[O-] (stereo not drawn) | inconclusive: 29.1 µM [cytotoxic, single point] | 
11 | COc1ccc(Cl)cc1/C=C/c1ccc2cccc(O)c2n1 | inconclusive: 18.4 µM [cytotoxic, single point] | 
12 | Cc1ccc2nc(-c3ccc(Cl)c(NC(=O)COc4ccc(C(C)C)cc4)c3)oc2c1 | inactive | 
13 | COc1ccc(C(CNC(=O)COc2ccc(-c3ccccc3)cc2)N2CCOCC2)cc1 (stereo not drawn) | inconclusive: 18.4 µM [cytotoxic, partial curve, poor fit] | 
14 | COc1ccc(/C=N/NC(=O)c2cnccn2)c(OC)c1OC | inactive | 
15 | CSCC(=O)N1CCCC(N2CCN(c3cccc(C(F)(F)F)c3)CC2)C1 (stereo not drawn) | inactive | 
16 | COc1ccc(NC(=O)CCc2ccccc2)cc1S(=O)(=O)N1CCCCC1 | inconclusive: 23.1 µM [cytotoxic, single point] | 
17 | Cc1cc(NC(=S)Nc2ccc(C)c(Cl)c2)n[nH]1 | inconclusive: 7.31 µM [rising, partial curve] | 
18 | O=C(CSc1nnc(-c2c[nH]c3ccccc23)o1)N1c2ccccc2CCc2ccccc21 | inconclusive: 20.6 µM [cytotoxic, single point] | 
19 | COc1cccc(N2CCN(C(=O)c3cn(Cc4ccccc4)nc3-c3cccnc3)CC2)c1 | active: 1.84 µM | 
20 | NC(=O)N/N=C/c1ccc(-c2cccc(C(F)(F)F)c2)o1 | inconclusive: 1.84 µM [rising, partial curve, poor fit] | 
21 | COC(=O)CCCN=C1SCCN1Cc1ccccc1 |  | inconclusive: 13.5%
22 | COc1cc2c(cc1OC)CN(C(=O)/C=C/c1cccc([N+](=O)[O-])c1)CC2 | inconclusive: 29.1 µM [cytotoxic, single point] | 

Row | SMILES | Potency | activity change, negative = cytotoxic
23 | CCOC(=O)CSc1nc2ccccc2c(=O)n1-c1cccc(C)c1 | inconclusive: 18.4 µM [rising, single point] | 
24 | COC(=O)c1[nH]c2ccc(Br)cc2c1NC(=O)CN1CCN(C2CCCCC2)CC1 | inconclusive: 25.9 µM [cytotoxic, single point] | 
25 | CCN(CC)S(=O)(=O)c1ccc(S(=O)(=O)N2CCCC2)cc1 | inactive | 
26 | CN(C(=O)c1ccco1)c1nc(-c2ccc(Cl)cc2)cs1 | inconclusive: 16.4 µM [rising, partial curve] | 
27 | CC(CCc1ccccc1)NC(=O)C1CC1 (stereo not drawn) | inconclusive: 0.013 µM [rising, full curve] | 
28 | Cc1ccccc1NC(=O)Cc1nnc(SCC(=O)NC2CCCC2)n1C | inactive | 
29 | O=C(O)Cc1ccc(NC2(c3ccccc3)C(=O)c3ccccc3C2=O)cc1 | inactive | 
30 | COc1cc(CCC(=O)OCC(=O)Nc2ccc(C)cc2Cl)cc(OC)c1OC | inconclusive: 3.66 µM [rising, full curve] | 
31 | O=C(/C=C/c1ccccc1[N+](=O)[O-])Nc1cc(S(=O)(=O)N2CCOCC2)ccc1N1CCOCC1 | inconclusive: 29.1 µM [cytotoxic, single point] | 
32 | CCOC(=O)CNC(=O)C1COc2ccccc2O1 (stereo not drawn) | inactive | 
33 | O=S(=O)(NCCC1=CCCCC1)c1c(Cl)cccc1Cl | inconclusive: 14.6 µM [cytotoxic, single point] | 
34 | CCOC(=O)N1CCN(C(=O)CSc2nc3c([nH]c4ccccc43)c(=O)n2CCOC)CC1 | inactive | 
35 | Cc1ccc(N2CCN(S(=O)(=O)c3ccc4c(c3)oc(=O)n4C)CC2C)cc1 (stereo not drawn) | inconclusive: 8.2 µM [cytotoxic, partial curve, poor fit] | 
36 | COc1cc(OC)cc(C2=Cc3ccccc3C(CC(C)=O)N2c2ccc(C#CC3(O)CCCCC3)cc2)c1 (stereo not drawn) | inconclusive: 16.4 µM [cytotoxic, single point] | 
37 | CCN(CC)c1ccc2c(c1)oc(=O)c1c(Cl)cc(=O)oc12 | inconclusive: 29.1 µM [cytotoxic, single point] | 
38 | Cc1ccc(/C=N/Nc2cc(C)nc(N3CCOCC3)n2)cc1 | inactive | 
39 | CCCCOCCCNC(=O)C[C@@H]1C[C@@]2(C(=O)OCC)CCCC=C2N(Cc2ccc(Cl)cc2Cl)C1=O | inconclusive: 16.4 µM [cytotoxic, single point] | 
40 | Cc1cc(C)c(S(=O)(=O)c2ccccc2C)c(Oc2ccccc2)n1 | inconclusive: 7.31 µM [cytotoxic, partial curve, poor fit] | 
41 | CCCCNC(=O)C1(NC(=O)Nc2ccc(C)cc2)CCCCC1 | inactive | 
42 | COC(=O)c1ccccc1N=Nc1c(N)[nH][nH]c1=O | inconclusive: 20.6 µM [cytotoxic, partial curve, poor fit] | 
43 | C[C@@H](C[C@@H](O)[C@H](O)C(C)(C)O)[C@@H]1CC[C@]2(C)C3=CC[C@H]4C(C)(C)C(=O)CC[C@]4(C)[C@H]3CC[C@@]12C | inconclusive: 18.4 µM [cytotoxic, single point] | 

3 of these compounds, set out differently:
Row	SMILES	Potency	activity change, negative = cytotoxic
31	O=C(/C=C/c1ccccc1[N+](=O)[O-])Nc1cc(S(=O)(=O)N2CCOCC2)ccc1N1CCOCC1	inconclusive: 29.1 µM [cytotoxic, single point]	
32	CCOC(=O)CNC(=O)C1COc2ccccc2O1 (stereo not drawn)	inactive	
33	O=S(=O)(NCCC1=CCCCC1)c1c(Cl)cccc1Cl	inconclusive: 14.6 µM [cytotoxic, single point]	
